Results: PMC12500468
These are yes or no findings as the source states them, for the method shown. In cells and extracts the contact can be indirect. Some entries that bind do so weakly or less than the wild type. Where a sequence is shown, tags or fusion partners need not be part of it.

Protein sequences, listed by entry. Tags and fused reporters are not part of them.
UniProt O95817: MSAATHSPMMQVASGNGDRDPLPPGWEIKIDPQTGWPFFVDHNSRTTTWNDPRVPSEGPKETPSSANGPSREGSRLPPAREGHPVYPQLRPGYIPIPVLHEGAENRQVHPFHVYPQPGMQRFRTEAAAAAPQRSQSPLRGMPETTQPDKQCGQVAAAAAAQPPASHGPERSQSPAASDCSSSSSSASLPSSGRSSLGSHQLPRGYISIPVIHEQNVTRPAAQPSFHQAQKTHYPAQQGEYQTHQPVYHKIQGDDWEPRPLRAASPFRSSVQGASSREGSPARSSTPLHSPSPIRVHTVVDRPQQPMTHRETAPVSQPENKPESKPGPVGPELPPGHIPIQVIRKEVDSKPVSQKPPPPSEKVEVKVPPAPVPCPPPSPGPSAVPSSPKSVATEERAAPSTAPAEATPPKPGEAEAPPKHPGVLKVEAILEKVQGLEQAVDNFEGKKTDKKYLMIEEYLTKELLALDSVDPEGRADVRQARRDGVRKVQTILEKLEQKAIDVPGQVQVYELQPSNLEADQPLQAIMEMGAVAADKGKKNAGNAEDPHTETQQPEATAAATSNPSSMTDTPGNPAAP
UniProt Q13200: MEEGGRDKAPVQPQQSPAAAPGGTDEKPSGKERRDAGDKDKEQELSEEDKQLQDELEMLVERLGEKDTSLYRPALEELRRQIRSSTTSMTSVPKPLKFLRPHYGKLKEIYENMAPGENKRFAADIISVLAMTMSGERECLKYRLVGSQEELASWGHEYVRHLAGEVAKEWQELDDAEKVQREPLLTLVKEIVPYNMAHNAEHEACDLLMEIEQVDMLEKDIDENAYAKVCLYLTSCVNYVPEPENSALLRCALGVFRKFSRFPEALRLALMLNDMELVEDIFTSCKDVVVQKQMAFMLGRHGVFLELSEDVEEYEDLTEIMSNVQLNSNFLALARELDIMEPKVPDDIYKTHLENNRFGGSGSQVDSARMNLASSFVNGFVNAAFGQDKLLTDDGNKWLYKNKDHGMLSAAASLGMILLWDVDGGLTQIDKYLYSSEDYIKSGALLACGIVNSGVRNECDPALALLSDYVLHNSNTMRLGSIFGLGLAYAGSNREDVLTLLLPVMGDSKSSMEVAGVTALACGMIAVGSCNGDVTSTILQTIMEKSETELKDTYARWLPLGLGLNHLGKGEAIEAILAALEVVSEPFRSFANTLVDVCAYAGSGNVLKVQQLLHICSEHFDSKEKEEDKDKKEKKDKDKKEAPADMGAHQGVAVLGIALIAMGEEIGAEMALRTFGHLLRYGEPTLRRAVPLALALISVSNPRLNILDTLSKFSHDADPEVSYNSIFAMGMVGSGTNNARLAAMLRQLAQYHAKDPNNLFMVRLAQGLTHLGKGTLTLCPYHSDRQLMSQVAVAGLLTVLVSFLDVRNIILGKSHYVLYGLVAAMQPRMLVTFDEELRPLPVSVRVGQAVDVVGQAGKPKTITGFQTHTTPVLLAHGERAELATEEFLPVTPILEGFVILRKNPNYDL
UniProt Q13620: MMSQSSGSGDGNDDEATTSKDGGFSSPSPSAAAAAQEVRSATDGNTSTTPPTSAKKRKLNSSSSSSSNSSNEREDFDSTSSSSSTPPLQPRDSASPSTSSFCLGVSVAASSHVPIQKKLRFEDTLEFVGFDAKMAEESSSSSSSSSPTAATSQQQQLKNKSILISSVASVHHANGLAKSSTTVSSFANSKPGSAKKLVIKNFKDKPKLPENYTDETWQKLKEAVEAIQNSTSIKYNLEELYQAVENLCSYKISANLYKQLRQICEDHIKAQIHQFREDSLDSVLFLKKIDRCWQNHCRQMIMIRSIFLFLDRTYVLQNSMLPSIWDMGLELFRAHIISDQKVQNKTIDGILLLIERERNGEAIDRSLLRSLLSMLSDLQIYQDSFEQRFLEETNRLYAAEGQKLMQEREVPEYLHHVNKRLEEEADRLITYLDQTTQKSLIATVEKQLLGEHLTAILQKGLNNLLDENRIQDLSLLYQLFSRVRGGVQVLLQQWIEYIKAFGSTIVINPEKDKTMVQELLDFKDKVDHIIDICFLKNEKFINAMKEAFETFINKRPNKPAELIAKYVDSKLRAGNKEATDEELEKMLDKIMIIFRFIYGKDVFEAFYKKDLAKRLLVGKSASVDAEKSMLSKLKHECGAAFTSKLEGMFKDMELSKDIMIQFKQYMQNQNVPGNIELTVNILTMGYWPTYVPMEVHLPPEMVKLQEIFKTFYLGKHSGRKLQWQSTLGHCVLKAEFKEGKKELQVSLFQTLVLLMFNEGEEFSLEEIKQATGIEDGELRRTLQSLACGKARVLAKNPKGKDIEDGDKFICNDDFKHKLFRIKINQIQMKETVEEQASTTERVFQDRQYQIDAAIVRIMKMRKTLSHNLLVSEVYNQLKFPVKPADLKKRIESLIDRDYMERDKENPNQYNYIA
UniProt Q93008: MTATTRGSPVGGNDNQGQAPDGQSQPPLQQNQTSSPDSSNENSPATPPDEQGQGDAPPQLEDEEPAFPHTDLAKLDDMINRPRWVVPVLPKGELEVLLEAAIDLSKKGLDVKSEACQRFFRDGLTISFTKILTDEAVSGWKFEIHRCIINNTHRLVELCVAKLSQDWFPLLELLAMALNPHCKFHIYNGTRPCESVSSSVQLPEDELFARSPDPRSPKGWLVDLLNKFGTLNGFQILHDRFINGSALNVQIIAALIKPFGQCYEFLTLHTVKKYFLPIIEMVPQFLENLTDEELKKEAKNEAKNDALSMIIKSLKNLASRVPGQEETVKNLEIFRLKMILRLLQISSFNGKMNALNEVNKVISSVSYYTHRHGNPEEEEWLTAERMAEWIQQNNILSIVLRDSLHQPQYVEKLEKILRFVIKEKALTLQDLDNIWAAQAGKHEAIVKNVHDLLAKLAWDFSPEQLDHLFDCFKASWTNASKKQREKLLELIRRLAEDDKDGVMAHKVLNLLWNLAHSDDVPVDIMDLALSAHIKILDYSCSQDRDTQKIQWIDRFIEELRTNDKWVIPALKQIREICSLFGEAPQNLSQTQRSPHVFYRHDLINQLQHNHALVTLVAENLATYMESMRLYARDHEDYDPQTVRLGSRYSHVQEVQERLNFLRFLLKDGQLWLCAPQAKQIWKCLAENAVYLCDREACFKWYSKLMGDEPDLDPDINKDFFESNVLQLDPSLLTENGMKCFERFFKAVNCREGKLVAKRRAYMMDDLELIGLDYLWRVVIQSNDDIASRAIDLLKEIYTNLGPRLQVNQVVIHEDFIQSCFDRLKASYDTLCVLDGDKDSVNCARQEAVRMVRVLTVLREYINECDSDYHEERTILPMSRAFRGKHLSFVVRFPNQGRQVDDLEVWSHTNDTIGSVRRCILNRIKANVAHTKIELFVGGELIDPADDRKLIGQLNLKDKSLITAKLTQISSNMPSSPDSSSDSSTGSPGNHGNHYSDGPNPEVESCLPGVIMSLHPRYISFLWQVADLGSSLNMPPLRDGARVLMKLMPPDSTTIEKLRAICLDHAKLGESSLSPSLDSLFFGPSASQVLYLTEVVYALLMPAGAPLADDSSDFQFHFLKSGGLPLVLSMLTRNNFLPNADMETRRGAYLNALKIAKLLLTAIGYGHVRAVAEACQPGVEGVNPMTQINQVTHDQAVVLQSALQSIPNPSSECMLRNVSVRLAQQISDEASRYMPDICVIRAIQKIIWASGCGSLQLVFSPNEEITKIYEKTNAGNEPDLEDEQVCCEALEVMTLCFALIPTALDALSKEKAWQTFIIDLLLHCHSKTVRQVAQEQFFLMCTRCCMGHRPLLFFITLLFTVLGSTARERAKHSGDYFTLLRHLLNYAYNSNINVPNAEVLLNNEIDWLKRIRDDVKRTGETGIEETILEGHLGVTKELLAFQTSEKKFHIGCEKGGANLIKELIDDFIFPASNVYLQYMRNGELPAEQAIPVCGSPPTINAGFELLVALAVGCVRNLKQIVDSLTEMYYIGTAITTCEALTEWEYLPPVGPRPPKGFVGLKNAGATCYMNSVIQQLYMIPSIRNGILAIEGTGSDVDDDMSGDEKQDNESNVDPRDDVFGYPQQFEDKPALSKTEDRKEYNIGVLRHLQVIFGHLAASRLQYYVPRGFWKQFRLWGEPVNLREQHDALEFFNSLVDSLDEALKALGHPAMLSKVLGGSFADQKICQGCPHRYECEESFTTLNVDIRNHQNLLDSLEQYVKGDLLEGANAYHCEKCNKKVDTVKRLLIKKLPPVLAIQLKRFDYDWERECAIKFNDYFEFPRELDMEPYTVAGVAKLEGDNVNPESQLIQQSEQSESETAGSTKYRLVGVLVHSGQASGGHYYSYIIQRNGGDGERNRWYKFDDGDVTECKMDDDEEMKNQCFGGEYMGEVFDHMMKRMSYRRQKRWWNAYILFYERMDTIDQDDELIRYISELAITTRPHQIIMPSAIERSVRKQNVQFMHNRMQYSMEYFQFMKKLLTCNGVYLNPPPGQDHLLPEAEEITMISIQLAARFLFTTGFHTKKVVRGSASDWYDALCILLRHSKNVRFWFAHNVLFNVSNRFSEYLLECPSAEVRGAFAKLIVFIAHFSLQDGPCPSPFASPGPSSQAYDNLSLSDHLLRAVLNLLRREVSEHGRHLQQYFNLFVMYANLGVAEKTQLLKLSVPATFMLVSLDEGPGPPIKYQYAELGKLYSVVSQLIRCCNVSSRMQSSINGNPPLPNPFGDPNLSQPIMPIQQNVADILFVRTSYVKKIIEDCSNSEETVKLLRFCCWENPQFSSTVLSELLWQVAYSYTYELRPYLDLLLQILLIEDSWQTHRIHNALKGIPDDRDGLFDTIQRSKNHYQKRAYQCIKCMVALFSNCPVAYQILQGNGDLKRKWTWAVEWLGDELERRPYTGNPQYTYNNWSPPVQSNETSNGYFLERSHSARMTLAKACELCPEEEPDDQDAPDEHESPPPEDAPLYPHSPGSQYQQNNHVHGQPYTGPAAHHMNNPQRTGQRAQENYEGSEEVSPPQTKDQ
UniProt P46379: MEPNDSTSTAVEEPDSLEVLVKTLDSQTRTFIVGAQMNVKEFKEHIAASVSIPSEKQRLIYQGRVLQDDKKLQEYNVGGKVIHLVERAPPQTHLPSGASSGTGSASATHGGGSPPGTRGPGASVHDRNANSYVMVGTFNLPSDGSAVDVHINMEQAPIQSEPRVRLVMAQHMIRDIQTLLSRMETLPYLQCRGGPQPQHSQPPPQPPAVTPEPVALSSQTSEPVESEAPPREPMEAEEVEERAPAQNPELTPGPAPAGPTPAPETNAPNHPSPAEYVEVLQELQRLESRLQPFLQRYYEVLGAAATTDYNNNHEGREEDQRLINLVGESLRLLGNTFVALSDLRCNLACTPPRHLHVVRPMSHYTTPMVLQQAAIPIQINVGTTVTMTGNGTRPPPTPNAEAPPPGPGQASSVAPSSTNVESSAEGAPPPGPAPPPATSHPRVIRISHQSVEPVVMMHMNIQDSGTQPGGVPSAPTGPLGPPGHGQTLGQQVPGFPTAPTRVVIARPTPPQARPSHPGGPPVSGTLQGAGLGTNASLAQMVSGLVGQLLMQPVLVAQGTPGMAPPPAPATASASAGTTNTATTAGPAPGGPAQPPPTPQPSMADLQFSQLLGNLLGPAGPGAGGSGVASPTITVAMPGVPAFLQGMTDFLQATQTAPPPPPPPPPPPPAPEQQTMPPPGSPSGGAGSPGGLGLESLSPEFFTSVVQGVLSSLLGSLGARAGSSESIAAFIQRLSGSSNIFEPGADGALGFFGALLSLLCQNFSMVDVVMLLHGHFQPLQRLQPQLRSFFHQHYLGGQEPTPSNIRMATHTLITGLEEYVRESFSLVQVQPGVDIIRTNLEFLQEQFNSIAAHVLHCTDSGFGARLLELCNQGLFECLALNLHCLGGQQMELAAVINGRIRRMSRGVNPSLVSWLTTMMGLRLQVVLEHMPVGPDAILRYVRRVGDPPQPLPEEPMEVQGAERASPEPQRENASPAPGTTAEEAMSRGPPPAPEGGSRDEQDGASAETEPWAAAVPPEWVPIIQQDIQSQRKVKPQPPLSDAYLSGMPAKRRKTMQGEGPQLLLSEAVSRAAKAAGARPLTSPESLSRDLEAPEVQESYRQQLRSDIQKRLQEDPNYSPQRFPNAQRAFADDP

Target: T1, LZTR1-HA (UniProt Q8N653)
T1 sequence: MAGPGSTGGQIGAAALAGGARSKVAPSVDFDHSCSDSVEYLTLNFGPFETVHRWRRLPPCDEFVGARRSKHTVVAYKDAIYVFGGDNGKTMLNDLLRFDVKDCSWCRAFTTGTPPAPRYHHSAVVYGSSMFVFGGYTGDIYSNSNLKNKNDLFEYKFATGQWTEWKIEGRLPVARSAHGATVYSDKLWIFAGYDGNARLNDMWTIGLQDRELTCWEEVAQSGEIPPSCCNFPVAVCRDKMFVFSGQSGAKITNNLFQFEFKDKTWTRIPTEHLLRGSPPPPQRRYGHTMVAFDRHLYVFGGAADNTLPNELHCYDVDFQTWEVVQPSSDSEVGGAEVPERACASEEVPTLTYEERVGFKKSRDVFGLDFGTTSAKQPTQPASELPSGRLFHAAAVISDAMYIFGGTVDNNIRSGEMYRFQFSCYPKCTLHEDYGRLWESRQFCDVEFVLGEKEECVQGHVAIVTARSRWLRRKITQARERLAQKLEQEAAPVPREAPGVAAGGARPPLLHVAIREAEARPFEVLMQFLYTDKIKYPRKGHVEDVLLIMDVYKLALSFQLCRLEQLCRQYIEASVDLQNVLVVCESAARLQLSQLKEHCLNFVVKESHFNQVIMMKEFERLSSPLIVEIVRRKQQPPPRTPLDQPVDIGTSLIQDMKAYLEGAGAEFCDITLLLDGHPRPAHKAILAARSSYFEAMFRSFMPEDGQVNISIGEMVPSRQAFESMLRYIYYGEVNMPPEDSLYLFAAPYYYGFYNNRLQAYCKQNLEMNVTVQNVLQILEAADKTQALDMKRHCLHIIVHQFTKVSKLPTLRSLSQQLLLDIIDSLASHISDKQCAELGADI
Experiment: co-IP; LZTR1-HA precipitated from YUHIMO lysates with anti-HA magnetic beads; eluted with SDS sample buffer; Western blot; non-induced cells as control

binding, binds:
BAG3 (from UniProt O95817 1-575)
sequestosome 1 (SQSTM1/p62) (from UniProt Q13501 1-440)
PSMD2 (proteasome 26S subunit ubiquitin receptor, non-ATPase 2) (from UniProt Q13200 1-908)
CUL4B (from UniProt Q13620 1-913)
myosin IIa (MYH9) (from UniProt P35579 1-1960)
USP9X (from UniProt Q93008 1-2554)
BAG6 (from UniProt P46379 1-1132)
